In article PMC12579238 one finds binding data, which are given here for 92 substances.

Amino acid sequences for entries named in this document (tags omitted).
UniProt Q9BUQ8: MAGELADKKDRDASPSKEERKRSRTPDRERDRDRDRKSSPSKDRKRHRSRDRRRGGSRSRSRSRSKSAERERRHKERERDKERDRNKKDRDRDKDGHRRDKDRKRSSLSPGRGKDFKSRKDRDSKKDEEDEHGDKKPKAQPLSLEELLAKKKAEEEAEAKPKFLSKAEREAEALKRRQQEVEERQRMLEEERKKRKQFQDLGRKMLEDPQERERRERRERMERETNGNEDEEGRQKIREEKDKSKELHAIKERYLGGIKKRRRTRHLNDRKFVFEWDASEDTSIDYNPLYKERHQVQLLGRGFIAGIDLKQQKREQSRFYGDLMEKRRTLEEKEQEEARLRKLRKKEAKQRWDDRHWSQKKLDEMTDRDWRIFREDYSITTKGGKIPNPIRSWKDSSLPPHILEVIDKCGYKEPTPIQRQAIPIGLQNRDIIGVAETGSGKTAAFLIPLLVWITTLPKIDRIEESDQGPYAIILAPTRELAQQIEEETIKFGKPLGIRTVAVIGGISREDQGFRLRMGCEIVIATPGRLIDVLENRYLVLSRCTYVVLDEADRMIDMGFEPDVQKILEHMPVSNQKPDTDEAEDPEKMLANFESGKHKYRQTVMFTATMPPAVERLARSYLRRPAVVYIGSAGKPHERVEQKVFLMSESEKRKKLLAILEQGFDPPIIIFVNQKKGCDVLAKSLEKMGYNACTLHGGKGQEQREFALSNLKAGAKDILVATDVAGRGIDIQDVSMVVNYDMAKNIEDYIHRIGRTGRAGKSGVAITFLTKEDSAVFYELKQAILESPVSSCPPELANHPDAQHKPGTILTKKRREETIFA
UniProt O75822: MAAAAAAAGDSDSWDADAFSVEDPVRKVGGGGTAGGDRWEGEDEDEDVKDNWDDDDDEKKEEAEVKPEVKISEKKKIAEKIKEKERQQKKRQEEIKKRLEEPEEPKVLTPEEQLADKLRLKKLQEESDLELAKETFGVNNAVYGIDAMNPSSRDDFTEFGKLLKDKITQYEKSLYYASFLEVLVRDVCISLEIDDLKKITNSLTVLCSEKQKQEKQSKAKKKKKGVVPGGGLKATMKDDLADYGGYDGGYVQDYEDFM
UniProt Q68E01: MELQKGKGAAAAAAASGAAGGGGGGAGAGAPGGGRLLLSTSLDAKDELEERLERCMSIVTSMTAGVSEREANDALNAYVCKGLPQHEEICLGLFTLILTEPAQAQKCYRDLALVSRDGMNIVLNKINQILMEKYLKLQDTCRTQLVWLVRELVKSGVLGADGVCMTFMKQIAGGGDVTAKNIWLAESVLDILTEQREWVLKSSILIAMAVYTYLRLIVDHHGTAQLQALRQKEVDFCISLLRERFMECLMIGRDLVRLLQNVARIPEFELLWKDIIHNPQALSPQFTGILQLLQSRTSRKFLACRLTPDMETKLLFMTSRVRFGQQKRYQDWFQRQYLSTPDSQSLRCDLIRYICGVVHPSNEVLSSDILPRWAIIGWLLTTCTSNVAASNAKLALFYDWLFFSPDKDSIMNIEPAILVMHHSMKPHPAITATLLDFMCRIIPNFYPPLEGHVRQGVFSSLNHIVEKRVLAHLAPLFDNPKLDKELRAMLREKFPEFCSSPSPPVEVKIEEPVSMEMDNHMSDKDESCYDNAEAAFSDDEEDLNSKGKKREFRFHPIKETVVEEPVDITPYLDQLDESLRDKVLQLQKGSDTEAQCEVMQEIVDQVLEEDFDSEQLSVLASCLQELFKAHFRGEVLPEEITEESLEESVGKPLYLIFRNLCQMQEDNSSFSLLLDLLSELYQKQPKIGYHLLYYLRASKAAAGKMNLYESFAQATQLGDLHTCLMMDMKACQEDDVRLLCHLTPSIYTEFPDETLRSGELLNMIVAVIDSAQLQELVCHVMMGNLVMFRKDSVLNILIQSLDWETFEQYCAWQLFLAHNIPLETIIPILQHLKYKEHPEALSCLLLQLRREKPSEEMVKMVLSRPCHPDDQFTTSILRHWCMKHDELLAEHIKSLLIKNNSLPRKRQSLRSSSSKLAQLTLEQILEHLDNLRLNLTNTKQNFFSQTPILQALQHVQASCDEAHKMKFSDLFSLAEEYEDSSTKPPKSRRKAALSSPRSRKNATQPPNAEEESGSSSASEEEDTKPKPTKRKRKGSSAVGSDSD
UniProt Q13347: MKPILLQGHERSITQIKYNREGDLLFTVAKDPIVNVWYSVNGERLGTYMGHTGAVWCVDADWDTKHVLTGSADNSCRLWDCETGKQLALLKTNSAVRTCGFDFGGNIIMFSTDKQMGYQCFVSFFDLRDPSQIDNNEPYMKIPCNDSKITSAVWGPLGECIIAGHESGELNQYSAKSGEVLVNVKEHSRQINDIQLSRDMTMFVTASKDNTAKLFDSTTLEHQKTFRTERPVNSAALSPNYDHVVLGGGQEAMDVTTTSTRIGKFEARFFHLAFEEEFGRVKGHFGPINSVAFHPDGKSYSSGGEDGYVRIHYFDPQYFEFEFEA
UniProt P62318: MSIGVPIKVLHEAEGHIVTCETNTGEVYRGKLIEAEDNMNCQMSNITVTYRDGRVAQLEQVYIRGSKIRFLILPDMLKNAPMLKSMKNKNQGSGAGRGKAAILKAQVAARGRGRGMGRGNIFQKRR
UniProt Q99996: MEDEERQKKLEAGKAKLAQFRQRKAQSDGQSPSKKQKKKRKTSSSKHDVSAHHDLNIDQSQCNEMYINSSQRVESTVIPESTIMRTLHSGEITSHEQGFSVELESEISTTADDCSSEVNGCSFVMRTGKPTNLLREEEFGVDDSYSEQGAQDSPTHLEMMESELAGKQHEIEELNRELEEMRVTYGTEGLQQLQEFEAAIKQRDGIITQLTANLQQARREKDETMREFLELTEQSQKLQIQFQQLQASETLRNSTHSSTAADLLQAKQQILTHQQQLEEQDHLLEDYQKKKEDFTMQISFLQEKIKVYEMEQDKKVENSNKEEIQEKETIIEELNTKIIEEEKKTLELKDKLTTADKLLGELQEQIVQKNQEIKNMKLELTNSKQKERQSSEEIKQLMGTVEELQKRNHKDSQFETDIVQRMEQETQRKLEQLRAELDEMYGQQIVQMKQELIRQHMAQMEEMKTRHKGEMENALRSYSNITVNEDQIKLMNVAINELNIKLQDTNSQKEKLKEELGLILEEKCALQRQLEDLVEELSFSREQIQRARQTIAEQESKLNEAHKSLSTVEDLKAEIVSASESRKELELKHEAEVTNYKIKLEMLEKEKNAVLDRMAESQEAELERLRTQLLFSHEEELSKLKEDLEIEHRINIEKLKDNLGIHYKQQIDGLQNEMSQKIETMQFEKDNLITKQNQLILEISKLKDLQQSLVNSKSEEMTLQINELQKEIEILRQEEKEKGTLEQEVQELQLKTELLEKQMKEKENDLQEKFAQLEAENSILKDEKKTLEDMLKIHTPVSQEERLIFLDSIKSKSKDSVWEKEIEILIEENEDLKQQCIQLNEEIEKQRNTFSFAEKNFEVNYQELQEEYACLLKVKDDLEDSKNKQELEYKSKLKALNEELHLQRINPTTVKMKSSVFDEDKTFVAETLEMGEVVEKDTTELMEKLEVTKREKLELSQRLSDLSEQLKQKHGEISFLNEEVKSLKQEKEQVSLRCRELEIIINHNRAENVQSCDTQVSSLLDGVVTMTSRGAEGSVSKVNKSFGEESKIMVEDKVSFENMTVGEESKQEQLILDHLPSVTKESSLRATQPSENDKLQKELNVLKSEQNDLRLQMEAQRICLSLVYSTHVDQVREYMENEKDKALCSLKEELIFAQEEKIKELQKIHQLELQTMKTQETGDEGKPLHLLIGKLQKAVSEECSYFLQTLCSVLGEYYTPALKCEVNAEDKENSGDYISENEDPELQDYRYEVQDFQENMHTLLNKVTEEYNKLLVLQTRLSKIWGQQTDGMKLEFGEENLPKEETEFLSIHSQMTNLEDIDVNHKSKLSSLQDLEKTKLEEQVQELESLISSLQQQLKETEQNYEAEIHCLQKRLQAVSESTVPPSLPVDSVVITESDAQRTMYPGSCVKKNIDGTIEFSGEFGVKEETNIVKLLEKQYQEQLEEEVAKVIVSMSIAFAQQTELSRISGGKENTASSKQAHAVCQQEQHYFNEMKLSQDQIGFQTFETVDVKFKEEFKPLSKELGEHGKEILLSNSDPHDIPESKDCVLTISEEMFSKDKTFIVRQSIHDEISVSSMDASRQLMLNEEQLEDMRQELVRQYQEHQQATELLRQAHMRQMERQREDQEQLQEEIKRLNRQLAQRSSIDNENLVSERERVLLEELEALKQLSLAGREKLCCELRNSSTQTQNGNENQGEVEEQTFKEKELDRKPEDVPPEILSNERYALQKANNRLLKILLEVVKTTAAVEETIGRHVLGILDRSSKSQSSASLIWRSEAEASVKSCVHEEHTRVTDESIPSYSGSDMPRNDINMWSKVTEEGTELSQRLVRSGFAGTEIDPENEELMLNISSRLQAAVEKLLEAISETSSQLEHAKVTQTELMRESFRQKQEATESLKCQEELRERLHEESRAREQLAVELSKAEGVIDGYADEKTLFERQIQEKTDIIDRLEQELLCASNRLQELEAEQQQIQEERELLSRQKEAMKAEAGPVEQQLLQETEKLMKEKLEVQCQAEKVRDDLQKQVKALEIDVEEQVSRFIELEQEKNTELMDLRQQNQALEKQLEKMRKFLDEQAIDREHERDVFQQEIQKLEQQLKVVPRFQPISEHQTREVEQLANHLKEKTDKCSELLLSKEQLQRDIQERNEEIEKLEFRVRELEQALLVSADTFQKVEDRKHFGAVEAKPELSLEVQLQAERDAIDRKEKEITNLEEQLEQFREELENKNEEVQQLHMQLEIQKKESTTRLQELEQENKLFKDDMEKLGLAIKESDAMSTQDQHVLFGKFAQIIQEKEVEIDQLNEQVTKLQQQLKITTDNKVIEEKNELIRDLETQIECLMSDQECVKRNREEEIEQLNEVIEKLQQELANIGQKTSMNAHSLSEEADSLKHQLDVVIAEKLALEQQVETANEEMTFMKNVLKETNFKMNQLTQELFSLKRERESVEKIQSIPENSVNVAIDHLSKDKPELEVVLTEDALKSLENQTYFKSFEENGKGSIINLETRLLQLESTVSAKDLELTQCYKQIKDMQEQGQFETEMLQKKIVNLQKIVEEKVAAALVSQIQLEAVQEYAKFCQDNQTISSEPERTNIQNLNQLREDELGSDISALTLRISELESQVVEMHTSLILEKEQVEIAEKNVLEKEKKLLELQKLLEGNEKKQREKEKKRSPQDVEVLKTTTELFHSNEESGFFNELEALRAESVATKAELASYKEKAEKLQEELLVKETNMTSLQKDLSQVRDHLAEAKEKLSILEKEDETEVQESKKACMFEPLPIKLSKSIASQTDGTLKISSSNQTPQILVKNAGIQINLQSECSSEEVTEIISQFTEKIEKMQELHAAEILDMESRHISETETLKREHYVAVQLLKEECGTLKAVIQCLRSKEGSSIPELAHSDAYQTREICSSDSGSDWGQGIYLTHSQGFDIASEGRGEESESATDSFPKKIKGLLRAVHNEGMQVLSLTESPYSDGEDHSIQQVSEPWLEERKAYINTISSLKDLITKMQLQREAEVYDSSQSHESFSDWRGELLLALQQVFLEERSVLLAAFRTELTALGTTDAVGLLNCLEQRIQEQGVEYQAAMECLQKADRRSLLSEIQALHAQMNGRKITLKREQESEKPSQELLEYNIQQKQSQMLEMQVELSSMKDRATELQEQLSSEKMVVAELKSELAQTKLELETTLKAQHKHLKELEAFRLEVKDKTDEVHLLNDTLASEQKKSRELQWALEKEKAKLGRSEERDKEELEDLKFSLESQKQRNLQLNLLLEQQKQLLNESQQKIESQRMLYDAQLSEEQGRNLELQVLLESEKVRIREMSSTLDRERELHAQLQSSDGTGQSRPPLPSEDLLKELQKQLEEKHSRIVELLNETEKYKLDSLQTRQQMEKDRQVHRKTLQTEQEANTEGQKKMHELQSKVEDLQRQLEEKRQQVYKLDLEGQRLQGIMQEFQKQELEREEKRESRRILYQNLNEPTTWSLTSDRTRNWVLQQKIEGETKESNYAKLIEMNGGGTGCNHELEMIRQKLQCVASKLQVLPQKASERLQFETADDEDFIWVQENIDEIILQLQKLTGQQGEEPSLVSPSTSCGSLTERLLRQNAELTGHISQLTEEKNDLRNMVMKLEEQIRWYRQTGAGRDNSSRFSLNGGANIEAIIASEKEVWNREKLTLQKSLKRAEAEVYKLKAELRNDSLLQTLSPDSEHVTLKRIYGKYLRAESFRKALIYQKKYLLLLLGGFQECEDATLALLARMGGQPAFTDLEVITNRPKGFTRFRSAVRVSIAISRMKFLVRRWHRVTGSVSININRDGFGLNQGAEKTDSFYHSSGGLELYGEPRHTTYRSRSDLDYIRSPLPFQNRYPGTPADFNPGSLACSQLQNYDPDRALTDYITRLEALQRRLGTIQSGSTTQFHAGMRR

These are yes or no findings as the source states them, for the method shown. In cells and extracts the contact can be indirect. Here binding means that the protein was enriched with, or labelled near, the bait; the list need not be complete.

In the test the target is T1, CLN7 (human (endogenous in SH-SY5Y)) (UniProt Q8NHS3).
T1 sequence: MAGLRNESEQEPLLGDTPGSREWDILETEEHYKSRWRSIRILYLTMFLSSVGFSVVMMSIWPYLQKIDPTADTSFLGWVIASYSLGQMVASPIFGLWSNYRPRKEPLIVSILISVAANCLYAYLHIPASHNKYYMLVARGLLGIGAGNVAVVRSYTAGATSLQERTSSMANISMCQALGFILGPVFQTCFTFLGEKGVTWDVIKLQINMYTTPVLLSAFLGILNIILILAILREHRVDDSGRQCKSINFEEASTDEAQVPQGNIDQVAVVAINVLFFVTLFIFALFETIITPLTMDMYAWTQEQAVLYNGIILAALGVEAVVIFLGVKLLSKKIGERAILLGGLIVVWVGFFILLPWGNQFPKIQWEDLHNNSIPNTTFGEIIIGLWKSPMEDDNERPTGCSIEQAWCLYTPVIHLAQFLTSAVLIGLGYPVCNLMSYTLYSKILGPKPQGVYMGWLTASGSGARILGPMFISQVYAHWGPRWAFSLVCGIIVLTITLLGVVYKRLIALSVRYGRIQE
The test can be described thus: affinity purification with mass spectrometry; endogenous CLN7 immunoprecipitated from 2.5 mg SH-SY5Y lysate with a polyclonal anti-CLN7 antibody raised against L9 (351-421aa, Proteintech) on G-sepharose beads; IgG as non-specific binding control; 4 independent replicates; cells under steady state culture conditions.
Consider FAM98A (from UniProt Q8NCA5 1-518), for which the binding entry is “binds”. Take G3BP1 (from UniProt Q13283 1-466): the binding entry is on record as “binds”.

In the case of MICALL2 (from UniProt Q8IY33 1-904), the binding result is listed as “binds”. With TUBG1 (from UniProt P23258 1-451) the entry was “binds”. As for INTS5 (from UniProt Q6P9B9 1-1019), the entry is “binds”; as for LSM14B (from UniProt Q9BX40 1-385), “binds”.

On to IFT140 (from UniProt Q96RY7 1-1462), for which the binding result is “binds”. Consider SNX3 (from UniProt O60493 1-162), for which the binding entry is listed as “binds”.

HERC2 (from UniProt O95714 1-4834): the binding entry is on record as “binds”. For the substance DDX21 (from UniProt Q9NR30 1-783), the binding entry is on record as “binds”.

As to MYO6 (from UniProt Q9UM54 1-1294), the binding entry was “binds”. Turning to ATR (from UniProt Q13535 1-2644), the binding entry is “binds”. Consider EIF4G1 (from UniProt Q04637 1-1599), for which the binding result is reported as “binds”. Take DDX23 (from UniProt Q9BUQ8 1-820): the binding result was “binds”.

For INTS7 (from UniProt Q9NVH2 1-962), the binding entry is given as “binds”. As for ASCC3 (from UniProt Q8N3C0 1-2202), the entry is “binds”.

For DDX41 (from UniProt Q9UJV9 1-622), the binding entry is listed as “binds”.

With ASCC1 (from UniProt Q8N9N2 1-400), the binding entry is recorded as “binds”.

As for EIF3H (from UniProt O15372 1-352), the binding result is “binds”.

Regarding SMCHD1 (from UniProt A6NHR9 1-2005), the binding result is “binds”. With SF3B1 (from UniProt O75533 1-1304) the entry was “binds”; with EXOSC2 (from UniProt Q13868 1-293), “binds”; with MAPRE2 (from UniProt Q15555 1-327), “binds”.

For CNOT3 (from UniProt O75175 1-753), the binding result is listed as “binds”.

KIF14 (from UniProt Q15058 1-1648): the binding entry was “binds”. With EXOSC6 (from UniProt Q5RKV6 1-272), the binding entry is “binds”. With SACS (from UniProt Q9NZJ4 1-4579) the entry was “binds”; with U2SURP (from UniProt O15042 1-1029), “binds”. As for MSH6 (from UniProt P52701 1-1360), the entry is “binds”. Consider NPM1 (from UniProt P06748 1-294), for which the binding result is “binds”. As for HBB (from UniProt P68871 1-147), the entry is “binds”; as for SZT2 (from UniProt Q5T011 1-3432), “binds”. As for EXOSC1 (from UniProt Q9Y3B2 1-195), the entry is “binds”; as for PRKAR2B (from UniProt P31323 1-418), “binds”. With KIF21A (from UniProt Q7Z4S6 1-1674) the entry was “binds”; with RPA2 (from UniProt P15927 1-270), “binds”. Take INTS4 (from UniProt Q96HW7 1-963): the binding result is listed as “binds”. Take DHX15 (from UniProt O43143 1-795): the binding entry is listed as “binds”.

With EIF3S1 (from UniProt O75822 1-258), the binding entry is “binds”. Regarding DCAF1 (from UniProt Q9Y4B6 1-1507), the binding result is recorded as “binds”. With TLK2 (from UniProt Q86UE8 1-772) the entry was “binds”. As for CENTG3 (from UniProt Q96P47 1-875), the entry is “binds”; as for PDE3A (from UniProt Q14432 1-1141), “binds”; as for AGO2 (from UniProt Q9UKV8 1-859), “binds”. On to NF1 (from UniProt P21359 1-2839), for which the binding result is “binds”. Take FXR2 (from UniProt P51116 1-673): the binding result was “binds”. Take RNF213 (from UniProt Q63HN8 1-5207): the binding result is listed as “binds”. With INTS8 (from UniProt Q75QN2 1-995) the entry was “binds”.

AKAP13 (from UniProt Q12802 1-2813): the binding entry is given as “binds”.

Consider SBF1 (from UniProt O95248 1-1868), for which the binding result is given as “binds”. As for FXR1 (from UniProt P51114 1-621), the entry is “binds”; as for INTS2 (from UniProt Q9H0H0 1-1196), “binds”. With INTS3 (from UniProt Q68E01 1-1043) the entry was “binds”; with HDLBP (from UniProt Q00341 1-1268), “binds”; with TPM1 (from UniProt P09493 1-284), “binds”. With H1FX (from UniProt Q92522 1-213) the entry was “binds”; with BCLAF1 (from UniProt Q9NYF8 1-920), “binds”. EIF3I (from UniProt Q13347 1-325): the binding entry is “binds”. Consider ARHGEF11 (from UniProt O15085 1-1522), for which the binding result was “binds”.

Regarding UBAP2L (from UniProt Q14157 1-1087), the binding entry was “binds”. For TCF4 (from UniProt P15884 1-667), the binding result is on record as “binds”. Consider EIF3S8 (from UniProt Q99613 1-913), for which the binding entry is recorded as “binds”. For the substance CDK5RAP2 (from UniProt Q96SN8 1-1893), the binding entry was “binds”. As for TJP1 (from UniProt Q07157 1-1748), the entry is “binds”; as for ATXN2 (from UniProt Q99700 1-1313), “binds”; as for U2AF1L5 (human (endogenous in SH-SY5Y)), “binds”. As for RPA1 (from UniProt P27694 1-616), the entry is “binds”; as for ARFGEF2 (from UniProt Q9Y6D5 1-1785), “binds”; as for MYCBP2 (from UniProt O75592 1-4678), “binds”. In the case of FOCAD (from UniProt Q5VW36 1-1801), the binding result is “binds”. As for SNRPD3 (from UniProt P62318 1-126), the entry is “binds”; as for PIK3R4 (from UniProt Q99570 1-1358), “binds”; as for SIPA1L3 (from UniProt O60292 1-1781), “binds”. With EIF3F (from UniProt O00303 1-357), the binding result is recorded as “binds”. With AKAP9 (from UniProt Q99996 1-3907) the entry was “binds”; with SRSF1 (from UniProt Q07955 1-248), “binds”; with DEPDC5 (from UniProt O75140 1-1603), “binds”. With TTC37 (from UniProt Q6PGP7 1-1564) the entry was “binds”.

As for RAD50 (from UniProt Q92878 1-1312), the binding entry was “binds”. Consider MYO5A (from UniProt Q9Y4I1 1-1855), for which the binding result is “binds”. With TRRAP (from UniProt Q9Y4A5 1-3859) the entry was “binds”; with INTS13 (from UniProt Q9NVM9 1-706), “binds”; with INTS10 (from UniProt Q9NVR2 1-710), “binds”.

On to CCDC85C (from UniProt A6NKD9 1-419), for which the binding entry is given as “binds”. In the case of EXOSC5 (from UniProt Q9NQT4 1-235), the binding result is given as “binds”.

For TRIM25 (from UniProt Q14258 1-630), the binding entry was “binds”. As to ANK2 (from UniProt Q01484 1-3957), the binding result is recorded as “binds”. In the case of DOCK6 (from UniProt Q96HP0 1-2047), the binding result is “binds”. Turning to ARHGEF7 (from UniProt Q14155 1-803), the binding result is listed as “binds”.

On to FRYL (from UniProt O94915 1-3013), for which the binding entry is reported as “binds”. As for INTS6 (from UniProt Q9UL03 1-887), the entry is “binds”. With HEATR1 (from UniProt Q9H583 1-2144) the entry was “binds”.
